We go through two substances from paper doi:10.1101/2020.05.13.094771.

Sequences of proteins named here, by UniProt entry; tags and fusion partners are left off. A change or cut given only in a name is not applied to a line headed by its entry.
UniProt A5F9W9: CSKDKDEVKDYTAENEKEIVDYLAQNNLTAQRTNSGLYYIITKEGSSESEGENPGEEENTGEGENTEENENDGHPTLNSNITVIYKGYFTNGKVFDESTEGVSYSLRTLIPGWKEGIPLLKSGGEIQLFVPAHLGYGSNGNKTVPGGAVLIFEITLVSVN

These are yes or no findings as the source states them, for the method shown. In cells and extracts the contact can be indirect. These calls come from enrichment with a bait or labelling near it, and not all partners need be listed.

For the test, the target named is sfGFP-CTD_(SprB (368 aa)) (F. johnsoniae) (UniProt A1E5U5). Put plainly: affinity purification with mass spectrometry.

Take Fjoh_3466 (from UniProt A5FE93): the binding entry is recorded as “binds”.
Under Fjoh_4997 (PPI) (from UniProt A5F9W9) stands “binds”.
